# Measured values as given in patent publication US20060293381A1, “Fungicidal effect by regulating signal transduction pathways” (priority 2005, published 2006).
# For at least one compound, name, drawing or mass did not settle the structure.
# Test system: C. neoformans
# Assay: Fungal growth on YPD agar containing the drug
# Assay type: cell-based, Cryptococcus neoformans
# Settings: serotype A wild-type (WT) strain H99; fludioxonil 1 and 10 ug ml^−1
# Description: To investigate whether C. neoformans is sensitive to fludioxonil, fungal growth was tested on YPD agar containing the drug. […] To elucidate the role of the HOG pathway in fludioxonil sensitivity, we tested the sensitivity of hog1Δ and pbs2Δ mutants that had been constructed before (Y S Bahn et al., Mol. Biol. Cell. (2005) 16: 2285-2300). […] To examine whether phosphorylation and kinase activity of Hog1 MAPK are required to confer fludioxonil sensitivity, we tested the sensitivity of cells expressing site-directed mutants of Hog1 at the phosphorylation sites (hog1+HOG1^T171A+Y173A) or the catalytic site (hog1+HOG1^K49S+K50N) (FIG. 1A).
# Two C. neoformans serotypes were tested for sensitivity to fludioxonil at 1 μg/ml and 10 μg/ml to determine whether fludioxonil sensitivity is differentially regulated between the two strains and if it is controlled by the HOG pathway. […] S. cerevisiae is resistant to fludioxonil and was used as a control. […]
# To determine whether the differential fludioxonil sensitivity observed between the serotype A strain H99 and the serotype D strain JEC21 results from serotype- or strain-specific differences, fludioxonil sensitivity in multiple serotype A and D clinical and environmental strains was investigated. The Hog1 phosphorylation pattern after a 1 hour exposure to fludioxonil was monitored.
structure (smiles),measurement,value
C=CC[C@@H]1/C=C(\C)C[C@H](C)C[C@H](OC)[C@H]2O[C@@](O)(C(=O)C(=O)N3CCCC[C@H]3C(=O)O[C@H](/C(C)=C/[C@@H]3CC[C@@H](O)[C@H](OC)C3)[C@H](C)[C@@H](O)CC1=O)[C@H](C)C[C@@H]2OC [FK506],growth on agar containing drug,no effect on cell growth
